{
  "source": "patent US10563197B2",
  "about": "“Use of a combination of Dbait molecule and PARP inhibitors to treat cancer” (INSTITUT CURIE, priority 2015, dated 2020)",
  "test_system": "BC227",
  "experiment": "Cell survival, trypan blue counting",
  "format": "cell-based, human",
  "conditions": "4.80 μM of AsiDNA and/or 0.1 μM of Ola; day 6 after treatment; listed as Ola",
  "note": "Some entries share one result that the patent states for a list of compounds.",
  "data": [
    {"smiles": "O=C(c1cc(Cc2n[nH]c(=O)c3ccccc23)ccc1F)N1CCN(C(=O)C2CC2)CC1", "note": "[Olaparib, 4-[(3-[(4-cyclopropylcarbonyl)piperazin-4-yl]carbonyl)-4-fluorophenyl]methyl(2H)-phthalazin-1-one]", "values": [
      {"measurement": "Survival (%/NT)", "value": "75-80 %/NT"}
    ]}
  ]
}
